In article PMC12361432:
Where a chain is given by its changes, count along the chain named. Results are given in words; binding and its absence hold for the method and conditions named. In cells and extracts the contact can be indirect. Some results given as binding are weak or reduced against the parent protein; the word gives no strength. Sequences can lack the tags named with a protein.

Assays:
[1] = molecular target: T1, CCR9 C-terminally fused to the Renilla luciferase variant RLuc8, wild type (human); experiment: FRET or BRET; HEK293T cells expressing CCR9-RLuc8 (WT or mutant) and YFP-Arr3, stimulated with CCL25 or [1P6]CCL25 at six concentrations in BRET buffer; area under the concentration-response curve against WT
T1 sequence: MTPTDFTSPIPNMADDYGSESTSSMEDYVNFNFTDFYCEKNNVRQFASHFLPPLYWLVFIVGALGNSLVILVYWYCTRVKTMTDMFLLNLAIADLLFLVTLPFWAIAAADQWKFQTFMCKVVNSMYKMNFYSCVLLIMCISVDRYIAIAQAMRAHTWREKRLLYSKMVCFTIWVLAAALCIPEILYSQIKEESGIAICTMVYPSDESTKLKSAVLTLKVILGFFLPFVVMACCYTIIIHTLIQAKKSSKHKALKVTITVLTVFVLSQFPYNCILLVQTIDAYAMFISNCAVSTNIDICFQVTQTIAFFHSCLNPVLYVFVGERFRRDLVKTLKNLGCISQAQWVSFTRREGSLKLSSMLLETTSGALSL

[2] = molecular target: T2, CCR9-RLuc8 T208A (human); experiment: as above
T2 sequence: T1 sequence with T208A

[3] = molecular target: T3, CCR9-RLuc8 Y126A (human); experiment: as above
T3 sequence: T1 sequence with Y126A

[4] = molecular target: T4, CCR9-RLuc8 S207A (human); experiment: as above
T4 sequence: T1 sequence with S207A

[5] = molecular target: T5, CCR9-RLuc8 F299A (human); experiment: as above
T5 sequence: T1 sequence with F299A

[6] = molecular target: T6, CCR9-RLuc8 N271A (human); experiment: as above
T6 sequence: T1 sequence with N271A

[7] = molecular target: T7, CCR9-RLuc8 Q267A (human); experiment: FRET or BRET; basal BRET between RLuc8-tagged receptor and YFP-tagged Arr3 in HEK293T cells in the absence of agonist stimulation
T7 sequence: T1 sequence with Q267A

[8] = molecular target: T3, CCR9-RLuc8 Y126A (human); experiment: as above
[9] = molecular target: T5, CCR9-RLuc8 F299A (human); experiment: as above
[10] = molecular target: T6, CCR9-RLuc8 N271A (human); experiment: as above

binding [1]: binds
binding [2]: no binding
binding [3]: binds
binding [4]: binds
binding [5]: binds
binding [6]: binds
binding [7]: binds
binding [8]: binds
binding [9]: binds
binding [10]: binds
Substance: YFP-arrestin 3 (from UniProt P32121 1-409)
